Test results reported in PubChem BioAssay AID492965 (The Scripps Research Institute Molecular Screening Center, 2010).
Out of some 1,100 compounds screened, about 100 (9.1%) were called active.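 The calls were made as follows: active = inhibition above a per-plate limit, the mean inhibition of that plate's test compounds plus 3 SD (cut at about 25% in these data); inactive = the rest.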 This is a selection; strong and weak results do not stand in their true shares.

experiment: ATP-evoked calcium inhibition in parental CHO, counter-screen for OX1R antagonist project, cell-based, fluorescence, CHO-K1, triplicate (AID 492965); details: parental CHO-K1, ATP-induced calcium, Fluo-8 fluorescence; at 5.6 µM; stronger effect = higher value;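 also: 0% = ATP challenge with DMSO and 100% = DMSO without ATP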

SMILES | inhibition
CC(C(=O)Nc1ccc(Cl)cc1Cl)N1CC=C(c2ccccc2)CC1 (stereo unspecified) | inactive: -16.3%
